PubChem BioAssay AID1259308, NCATS, 2017
Test: 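Genes whose loss raises luciferase production in HEK293 cells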 (primary screen). Cell system: human HEK293 embryonic kidney cells stably expressing firefly luciferase (HEK-CMV-Luc2-Hygro). Knock-down reagent: single siRNA against human genes, 0.8 pmol siRNA per well. Time to read-out: 72 h. Measured: 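Luciferase light (ONE-Glo) measured on one replicate plate set and viability (CellTiter-Glo) on the other, scaled to a negative control siRNA, with robust z-scores and luciferase per cell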. Reading the numbers: total luciferase, z-score and total luciferase, % of control: higher = more reporter protein produced; luciferase per cell, z-score: higher = more reporter output per viable cell; viable cells, % of control: higher = more viable cells. Call rule: 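An siRNA counts as active if its total luciferase robust z-score exceeds 3; genes with two or more such siRNAs out of three were retested with fresh siRNAs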. Calls: active = raised luciferase; inactive = no rise.
Here is a random part of about 59,000 reagents. Over the whole deposit, about 1,510 (2.6%) got an active call. 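Calls use total luciferase alone and ignore viability, so some active siRNAs may act by altering cell number.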 The numbers tell different reagents against one gene apart. Reagent sequences are not shown.

total luciferase, z-score	total luciferase, % of control	luciferase per cell, z-score	viable cells, % of control	activity call	Target gene	reagent no.
-0.602	69.9	-0.907	99.2	inactive	PTAFR (platelet activating factor receptor)	1
0.505	91.9	1.31	72.7	inactive	PTAFR (platelet activating factor receptor)	2
-0.572	70.5	-0.35	86.4	inactive	PTAFR (platelet activating factor receptor)	3
2.41	130	1.39	101	inactive	ZNF225 (zinc finger protein 225)	1
2.8	138	1.97	91.6	inactive	ZNF225 (zinc finger protein 225)	2
-0.267	76.6	-0.717	103	inactive	ZNF225 (zinc finger protein 225)	3
-0.491	72.1	-0.722	97.5	inactive	PLEKHJ1 (pleckstrin homology domain containing J1)	1
2.39	129	3.16	62.9	inactive	PLEKHJ1 (pleckstrin homology domain containing J1)	2
0.529	92.4	0.386	93.3	inactive	PLEKHJ1 (pleckstrin homology domain containing J1)	3
-0.312	75.7	-0.253	90.4	inactive	CAPN3 (calpain 3)	1
-3.15	19.2	-5.36	87.8	inactive	CAPN3 (calpain 3)	2
-0.651	68.9	-0.908	97.8	inactive	CAPN3 (calpain 3)	3
-0.129	79.3	-0.167	92.6	inactive	BSDC1 (BSD domain containing 1)	1
-1.63	49.5	0.0111	55.1	inactive	BSDC1 (BSD domain containing 1)	2
-0.659	68.8	-0.216	81.4	inactive	BSDC1 (BSD domain containing 1)	3
0.029	82.5	-0.118	95.1	inactive	WFDC11 (WAP four-disulfide core domain 11)	1
-0.6	70	-0.109	80.5	inactive	WFDC11 (WAP four-disulfide core domain 11)	2
0.163	85.1	0.515	83.1	inactive	WFDC11 (WAP four-disulfide core domain 11)	3
-1.04	61.2	-0.438	76.7	inactive	USH1G (USH1 protein network component sans)	1
1.07	103	1.79	72	inactive	USH1G (USH1 protein network component sans)	2
0.416	90.2	0.123	97.5	inactive	USH1G (USH1 protein network component sans)	3
0.101	83.9	-0.0527	95.1	inactive	ZNF823 (zinc finger protein 823)	1
-0.594	70.1	-0.683	93.7	inactive	ZNF823 (zinc finger protein 823)	2
-0.158	78.7	0.0316	87.3	inactive	ZNF823 (zinc finger protein 823)	3
-0.481	72.3	-0.323	88	inactive	CLCA1 (chloride channel accessory 1)	1
-1.65	49	-1.17	74.6	inactive	CLCA1 (chloride channel accessory 1)	2
0.0467	82.8	-0.707	111	inactive	CLCA1 (chloride channel accessory 1)	3
0.818	98.2	2.66	54.4	inactive	DEFB107A (defensin beta 107A)	1
-0.345	75	0.402	75.4	inactive	DEFB107A (defensin beta 107A)	2
0.0401	82.7	0.342	84.4	inactive	DEFB107A (defensin beta 107A)	3

Next part, starting with the last 3 of the part before.
total luciferase, z-score	total luciferase, % of control	luciferase per cell, z-score	viable cells, % of control	activity call	Target gene	reagent no.
0.818	98.2	2.66	54.4	inactive	DEFB107A (defensin beta 107A)	1
-0.345	75	0.402	75.4	inactive	DEFB107A (defensin beta 107A)	2
0.0401	82.7	0.342	84.4	inactive	DEFB107A (defensin beta 107A)	3
0.0654	83.2	-0.312	101	inactive	BLTP3A (bridge-like lipid transfer protein family member 3A)	1
0.122	84.3	-0.249	101	inactive	BLTP3A (bridge-like lipid transfer protein family member 3A)	2
0.0768	83.4	-0.601	109	inactive	BLTP3A (bridge-like lipid transfer protein family member 3A)	3
-0.00558	81.8	0.334	83.7	inactive	MORN2 (MORN repeat containing 2)	1
1.02	102	1.41	78.8	inactive	MORN2 (MORN repeat containing 2)	2
0.56	93	0.541	90.1	inactive	MORN2 (MORN repeat containing 2)	3
-0.0255	81.4	-0.351	99.7	inactive	TMEM121 (transmembrane protein 121)	1
-0.312	75.7	0.902	66.7	inactive	TMEM121 (transmembrane protein 121)	2
1.34	108	0.842	97.1	inactive	TMEM121 (transmembrane protein 121)	3
0.133	84.5	-0.072	96.3	inactive	TSR1 (TSR1 ribosome maturation factor)	1
-0.0283	81.3	-0.599	106	inactive	TSR1 (TSR1 ribosome maturation factor)	2
0.00226	81.9	-0.636	108	inactive	TSR1 (TSR1 ribosome maturation factor)	3
0.474	91.3	-0.121	105	inactive	GAB2 (GRB2 associated binding protein 2)	1
0.583	93.5	0.232	98.3	inactive	GAB2 (GRB2 associated binding protein 2)	2
-1.01	61.7	-0.687	82.6	inactive	GAB2 (GRB2 associated binding protein 2)	3
5.28	187	4.22	68.8	active	ICE1 (interactor of little elongation complex ELL subunit 1)	1
2.02	122	1.73	86.5	inactive	ICE1 (interactor of little elongation complex ELL subunit 1)	2
1.53	112	0.523	109	inactive	ICE1 (interactor of little elongation complex ELL subunit 1)	3
0.975	101	0.41	102	inactive	ABHD10 (abhydrolase domain containing 10, depalmitoylase)	1
0.366	89.2	-0.104	102	inactive	ABHD10 (abhydrolase domain containing 10, depalmitoylase)	2
-0.726	67.4	-1.21	104	inactive	ABHD10 (abhydrolase domain containing 10, depalmitoylase)	3
1.66	115	1.38	89.3	inactive	RNF112 (ring finger protein 112)	1
0.135	84.6	2.67	46.8	inactive	RNF112 (ring finger protein 112)	2
-0.456	72.8	0.849	65.1	inactive	RNF112 (ring finger protein 112)	3
-0.259	76.7	-0.138	88.9	inactive	CD44 (CD44 molecule (IN blood group))	1
-0.64	69.2	-0.165	80.7	inactive	CD44 (CD44 molecule (IN blood group))	2
0.319	88.2	0.152	94.7	inactive	CD44 (CD44 molecule (IN blood group))	3
